Measurements published in PubChem BioAssay AID190 (DTP/NCI, 2004).
Values joined by “and” are separate entries in the source; they are usually repeats but may differ in a detail not shown here. Equal entries are not always repeated. This continues a long series; more values of the same kind are listed elsewhere. Inconclusive results and toxic doses are left out. Rule for the calls: active = survival T/C of 150% or more; inactive = T/C below 125% in these data.

Test system: AKR/Lw mice, AKR lymphoma ip, median survival T/C
Experiment: NCI In Vivo Anticancer Drug Screen. Data for tumor model Lymphoma AKR (Transplanted) (intraperitoneal) in AKR/Lw mice
Settings: endpoint: median survival time, higher = longer survival
Method: The antitumor activity of compounds was measured in mice bearing transplantable tumors. Survival or tumor size were measured and the results are expressed as the measurement made in the treated group (T) divided by the measurement made in the vehicle treated control group (C). The tumor model used in this assay is Lymphoma AKR (Transplanted) (intraperitoneal) in AKR/Lw mice

Measured: T/C

O=P1(N(CCCl)CCCl)NCCCO1 (stereo not drawn)
active: dose: 75.0 mg/kg/injection, schedule: Q01DX001 (ip), vehicle: saline with Tween-80 = 375 % of control | dose: 100.0 mg/kg/injection, schedule: Q10DX002 (ip), vehicle: saline 255 % of control | dose: 100.0 mg/kg/injection, schedule: Q12DX002 (ip), vehicle: saline 248 % of control | dose: 100.0 mg/kg/injection, schedule: Q14DX004 (ip), vehicle: saline 290 % of control | dose: 100.0 mg/kg/injection, schedule: Q## X002 (ip), vehicle: saline 248 % of control | dose: 125.0 mg/kg/injection, schedule: Q07DX003 (ip), vehicle: saline 268 % of control | dose: 150.0 mg/kg/injection, schedule: Q01DX001 (ip), vehicle: saline with Tween-80 = 303 % of control | dose: 150.0 mg/kg/injection, schedule: Q12DX002 (ip), vehicle: saline 244 % of control and 294 % of control (2×) | dose: 150.0 mg/kg/injection, schedule: Q## X002 (ip), vehicle: saline 244 % of control | dose: 200.0 mg/kg/injection, schedule: Q12DX002 (ip), vehicle: saline 244 % of control | dose: 200.0 mg/kg/injection, schedule: Q## X002 (ip), vehicle: saline 244 % of control | dose: 300.0 mg/kg/injection, schedule: Q01DX001 (ip), vehicle: saline with Tween-80 = 312 % of control | dose: 300.0 mg/kg/injection, schedule: Q12DX002 (ip), vehicle: saline 293 % of control
